Source: PubChem BioAssay AID1224830 (NIAID, 2016)
Purpose: 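Host factors that control LPS-induced TNF expression in human macrophages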 (primary screen). System: human THP-1 monocytic leukaemia cells, TNF dual-luciferase reporter clone, PMA-differentiated to macrophage-like cells. Reagents: siRNA pool against human genes, 50 nM. Duration: LPS for 4 h, given about 3 days after siRNA transfection. Challenge: bacterial LPS (TLR4 ligand), 10 ng/ml. Detection: 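Ratio of firefly to renilla light, scaled to the plate median and expressed as a robust z-score per replicate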. Scale: TNF reporter robust z-score: higher = stronger TNF reporter response to LPS. Active means: 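a well is active when its z-score exceeds 2.8 or falls below -1.5; control wells carry no call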.
In all, the deposit lists about 18,000 reagents; this is a random part of them. In the full data, about 2,900 (16%) were called active. 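Calls are made per well; low scores hint the gene aids the LPS response, high scores that it dampens it.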 Repeated entries: four replicate wells of each siRNA pool.

{"gene": "GRM8 (glutamate metabotropic receptor 8)", "TNF reporter robust z-score": -0.94, "outcome": "inactive"}
{"gene": "GRM8 (glutamate metabotropic receptor 8)", "TNF reporter robust z-score": -0.13, "outcome": "inactive"}
{"gene": "GRM8 (glutamate metabotropic receptor 8)", "TNF reporter robust z-score": 0.66, "outcome": "inactive"}
{"gene": "GRM8 (glutamate metabotropic receptor 8)", "TNF reporter robust z-score": -0.21, "outcome": "inactive"}
{"gene": "PTPRM (protein tyrosine phosphatase receptor type M)", "TNF reporter robust z-score": 0.28, "outcome": "inactive"}
{"gene": "PTPRM (protein tyrosine phosphatase receptor type M)", "TNF reporter robust z-score": 0.64, "outcome": "inactive"}
{"gene": "PTPRM (protein tyrosine phosphatase receptor type M)", "TNF reporter robust z-score": 0.9, "outcome": "inactive"}
{"gene": "PTPRM (protein tyrosine phosphatase receptor type M)", "TNF reporter robust z-score": 0.86, "outcome": "inactive"}
{"gene": "CYTH1 (cytohesin 1)", "TNF reporter robust z-score": -0.6, "outcome": "inactive"}
{"gene": "CYTH1 (cytohesin 1)", "TNF reporter robust z-score": -0.86, "outcome": "inactive"}
{"gene": "CYTH1 (cytohesin 1)", "TNF reporter robust z-score": -1.18, "outcome": "inactive"}
{"gene": "CYTH1 (cytohesin 1)", "TNF reporter robust z-score": -1.08, "outcome": "inactive"}
{"gene": "VGLL1 (vestigial like family member 1)", "TNF reporter robust z-score": -1.51, "outcome": "active"}
{"gene": "VGLL1 (vestigial like family member 1)", "TNF reporter robust z-score": -1.88, "outcome": "active"}
{"gene": "VGLL1 (vestigial like family member 1)", "TNF reporter robust z-score": -1.32, "outcome": "inactive"}
{"gene": "VGLL1 (vestigial like family member 1)", "TNF reporter robust z-score": -1.38, "outcome": "inactive"}
{"gene": "MTRF1L (mitochondrial translation release factor 1 like)", "TNF reporter robust z-score": -0.25, "outcome": "inactive"}
{"gene": "MTRF1L (mitochondrial translation release factor 1 like)", "TNF reporter robust z-score": -0.14, "outcome": "inactive"}
{"gene": "MTRF1L (mitochondrial translation release factor 1 like)", "TNF reporter robust z-score": -0.76, "outcome": "inactive"}
{"gene": "MTRF1L (mitochondrial translation release factor 1 like)", "TNF reporter robust z-score": -0.65, "outcome": "inactive"}
{"gene": "OR5H15 (olfactory receptor family 5 subfamily H member 15)", "TNF reporter robust z-score": -0.42, "outcome": "inactive"}
{"gene": "OR5H15 (olfactory receptor family 5 subfamily H member 15)", "TNF reporter robust z-score": -0.51, "outcome": "inactive"}
{"gene": "OR5H15 (olfactory receptor family 5 subfamily H member 15)", "TNF reporter robust z-score": -1.21, "outcome": "inactive"}
{"gene": "OR5H15 (olfactory receptor family 5 subfamily H member 15)", "TNF reporter robust z-score": 0.16, "outcome": "inactive"}
{"gene": "MT1F (metallothionein 1F)", "TNF reporter robust z-score": -0.63, "outcome": "inactive"}
{"gene": "MT1F (metallothionein 1F)", "TNF reporter robust z-score": -0.64, "outcome": "inactive"}
{"gene": "MT1F (metallothionein 1F)", "TNF reporter robust z-score": -0.53, "outcome": "inactive"}
{"gene": "MT1F (metallothionein 1F)", "TNF reporter robust z-score": -0.15, "outcome": "inactive"}
{"gene": "POC1B (POC1 centriolar protein B)", "TNF reporter robust z-score": -0.15, "outcome": "inactive"}
{"gene": "POC1B (POC1 centriolar protein B)", "TNF reporter robust z-score": -0.87, "outcome": "inactive"}
{"gene": "POC1B (POC1 centriolar protein B)", "TNF reporter robust z-score": -0.86, "outcome": "inactive"}
{"gene": "POC1B (POC1 centriolar protein B)", "TNF reporter robust z-score": -0.19, "outcome": "inactive"}

Called active (from the list above):
{"gene": "VGLL1 (vestigial like family member 1)", "TNF reporter robust z-score": -1.51, "outcome": "active"}
{"gene": "VGLL1 (vestigial like family member 1)", "TNF reporter robust z-score": -1.88, "outcome": "active"}
